# Measurements: the supplement of paper PMC10849652
# The chains behind the UniProt entries cited, without tags or fusion partners. Where a name states a change or a piece, a line headed by the entry shows the natural chain unless it says otherwise.
# UniProt Q8N755: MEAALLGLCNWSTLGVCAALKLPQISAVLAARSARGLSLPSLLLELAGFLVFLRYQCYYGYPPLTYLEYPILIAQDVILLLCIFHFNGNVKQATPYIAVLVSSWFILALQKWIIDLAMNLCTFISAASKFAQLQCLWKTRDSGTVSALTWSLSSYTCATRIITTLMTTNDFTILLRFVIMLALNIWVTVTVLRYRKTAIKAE
# UniProt Q8IVJ1: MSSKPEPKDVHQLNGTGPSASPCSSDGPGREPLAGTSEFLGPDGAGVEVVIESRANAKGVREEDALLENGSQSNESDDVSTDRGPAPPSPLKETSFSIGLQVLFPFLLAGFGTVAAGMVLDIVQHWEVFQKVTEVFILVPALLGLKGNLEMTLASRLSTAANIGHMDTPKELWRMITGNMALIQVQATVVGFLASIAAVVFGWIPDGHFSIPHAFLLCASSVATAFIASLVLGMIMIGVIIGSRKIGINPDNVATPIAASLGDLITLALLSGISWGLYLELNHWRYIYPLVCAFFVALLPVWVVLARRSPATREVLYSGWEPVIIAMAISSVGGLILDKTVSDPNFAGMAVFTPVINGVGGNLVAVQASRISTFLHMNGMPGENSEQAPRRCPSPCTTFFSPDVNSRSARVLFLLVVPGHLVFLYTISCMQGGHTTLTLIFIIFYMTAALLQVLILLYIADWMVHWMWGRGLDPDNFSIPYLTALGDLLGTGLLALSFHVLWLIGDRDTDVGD
# UniProt Q8N697: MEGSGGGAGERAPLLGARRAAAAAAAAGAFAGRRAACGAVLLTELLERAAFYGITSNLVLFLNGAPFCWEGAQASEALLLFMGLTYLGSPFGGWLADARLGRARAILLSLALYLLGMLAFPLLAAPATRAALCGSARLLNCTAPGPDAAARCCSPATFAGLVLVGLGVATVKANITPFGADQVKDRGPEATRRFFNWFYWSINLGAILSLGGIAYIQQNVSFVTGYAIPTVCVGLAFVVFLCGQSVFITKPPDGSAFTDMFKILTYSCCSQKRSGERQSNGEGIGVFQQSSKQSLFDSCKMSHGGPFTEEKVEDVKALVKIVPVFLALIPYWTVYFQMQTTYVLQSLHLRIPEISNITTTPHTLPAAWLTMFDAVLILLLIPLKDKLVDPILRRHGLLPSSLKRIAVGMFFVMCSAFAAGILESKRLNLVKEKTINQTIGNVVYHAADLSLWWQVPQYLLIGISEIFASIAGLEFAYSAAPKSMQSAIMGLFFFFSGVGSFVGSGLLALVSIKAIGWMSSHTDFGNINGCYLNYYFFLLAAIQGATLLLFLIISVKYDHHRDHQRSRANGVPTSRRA
# UniProt Q2M3R5: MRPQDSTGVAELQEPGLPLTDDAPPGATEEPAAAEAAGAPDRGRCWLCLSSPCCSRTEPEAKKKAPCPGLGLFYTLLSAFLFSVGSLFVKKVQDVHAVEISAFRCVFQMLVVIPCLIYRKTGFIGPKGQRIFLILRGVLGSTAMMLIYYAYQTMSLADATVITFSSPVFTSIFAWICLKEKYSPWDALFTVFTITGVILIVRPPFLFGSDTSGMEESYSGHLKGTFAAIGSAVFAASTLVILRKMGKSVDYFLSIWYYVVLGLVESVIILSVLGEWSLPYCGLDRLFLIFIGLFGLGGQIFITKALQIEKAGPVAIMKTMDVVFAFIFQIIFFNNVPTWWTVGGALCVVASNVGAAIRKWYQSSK
# UniProt F5GZS6: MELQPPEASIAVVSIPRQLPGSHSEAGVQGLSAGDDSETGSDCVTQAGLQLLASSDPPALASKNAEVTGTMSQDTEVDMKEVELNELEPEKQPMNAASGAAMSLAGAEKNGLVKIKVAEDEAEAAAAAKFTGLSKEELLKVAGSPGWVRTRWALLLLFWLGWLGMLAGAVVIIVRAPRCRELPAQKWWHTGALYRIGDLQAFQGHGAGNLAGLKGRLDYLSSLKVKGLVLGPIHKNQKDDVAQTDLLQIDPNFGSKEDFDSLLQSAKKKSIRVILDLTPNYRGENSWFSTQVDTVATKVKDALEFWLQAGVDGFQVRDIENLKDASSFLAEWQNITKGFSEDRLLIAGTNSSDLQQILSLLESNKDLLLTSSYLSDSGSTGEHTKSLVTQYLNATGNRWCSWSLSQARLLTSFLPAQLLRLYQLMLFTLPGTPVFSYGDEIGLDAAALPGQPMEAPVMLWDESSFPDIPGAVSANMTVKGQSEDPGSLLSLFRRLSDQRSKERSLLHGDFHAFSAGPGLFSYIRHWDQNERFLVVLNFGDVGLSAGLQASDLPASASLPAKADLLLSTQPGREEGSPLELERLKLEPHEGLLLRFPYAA
# UniProt P43003, whole entry, looked up: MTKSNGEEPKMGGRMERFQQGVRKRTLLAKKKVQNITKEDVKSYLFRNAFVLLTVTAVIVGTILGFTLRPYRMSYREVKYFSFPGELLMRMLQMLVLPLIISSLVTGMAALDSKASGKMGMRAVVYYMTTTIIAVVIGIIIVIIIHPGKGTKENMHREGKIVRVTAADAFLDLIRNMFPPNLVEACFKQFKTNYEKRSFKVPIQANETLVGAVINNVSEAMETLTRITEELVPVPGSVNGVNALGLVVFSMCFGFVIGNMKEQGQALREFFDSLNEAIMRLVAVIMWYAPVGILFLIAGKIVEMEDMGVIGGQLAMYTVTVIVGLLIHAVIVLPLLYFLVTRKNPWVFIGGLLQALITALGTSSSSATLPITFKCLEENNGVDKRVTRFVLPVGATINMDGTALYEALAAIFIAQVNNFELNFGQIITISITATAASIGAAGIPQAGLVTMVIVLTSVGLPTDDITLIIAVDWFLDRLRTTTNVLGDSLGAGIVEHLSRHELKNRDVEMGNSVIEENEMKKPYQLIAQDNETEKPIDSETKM
# UniProt O95258: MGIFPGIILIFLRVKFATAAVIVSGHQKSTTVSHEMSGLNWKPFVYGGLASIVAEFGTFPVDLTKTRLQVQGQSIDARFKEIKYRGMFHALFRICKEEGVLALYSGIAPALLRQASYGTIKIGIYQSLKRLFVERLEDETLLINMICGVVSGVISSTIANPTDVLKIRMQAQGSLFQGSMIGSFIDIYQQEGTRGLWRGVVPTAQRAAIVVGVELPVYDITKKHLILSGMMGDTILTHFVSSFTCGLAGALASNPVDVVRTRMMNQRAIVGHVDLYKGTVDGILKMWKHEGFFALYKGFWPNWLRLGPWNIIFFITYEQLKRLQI
# UniProt Q9BS91: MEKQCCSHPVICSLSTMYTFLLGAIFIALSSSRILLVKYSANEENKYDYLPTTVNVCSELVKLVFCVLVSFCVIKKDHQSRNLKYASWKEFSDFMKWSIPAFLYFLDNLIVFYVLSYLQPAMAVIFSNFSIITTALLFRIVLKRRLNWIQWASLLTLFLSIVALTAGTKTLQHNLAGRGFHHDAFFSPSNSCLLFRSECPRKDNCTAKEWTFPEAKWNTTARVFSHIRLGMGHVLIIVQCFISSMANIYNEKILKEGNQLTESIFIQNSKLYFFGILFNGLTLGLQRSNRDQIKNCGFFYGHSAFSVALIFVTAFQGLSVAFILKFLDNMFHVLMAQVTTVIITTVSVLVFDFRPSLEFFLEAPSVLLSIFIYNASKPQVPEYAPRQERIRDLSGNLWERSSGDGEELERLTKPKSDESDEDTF
# UniProt Q96K37: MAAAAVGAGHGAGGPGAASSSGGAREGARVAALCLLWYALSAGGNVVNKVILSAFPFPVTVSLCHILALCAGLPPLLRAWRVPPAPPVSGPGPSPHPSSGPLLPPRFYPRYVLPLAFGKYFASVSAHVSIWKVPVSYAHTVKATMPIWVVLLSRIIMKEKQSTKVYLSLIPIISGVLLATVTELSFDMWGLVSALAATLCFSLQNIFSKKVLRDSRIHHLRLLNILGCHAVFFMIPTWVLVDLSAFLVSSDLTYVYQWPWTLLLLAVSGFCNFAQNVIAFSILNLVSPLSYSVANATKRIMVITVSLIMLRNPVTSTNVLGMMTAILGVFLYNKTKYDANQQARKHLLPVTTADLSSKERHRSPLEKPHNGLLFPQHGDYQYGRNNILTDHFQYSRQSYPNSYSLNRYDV
# UniProt O15431: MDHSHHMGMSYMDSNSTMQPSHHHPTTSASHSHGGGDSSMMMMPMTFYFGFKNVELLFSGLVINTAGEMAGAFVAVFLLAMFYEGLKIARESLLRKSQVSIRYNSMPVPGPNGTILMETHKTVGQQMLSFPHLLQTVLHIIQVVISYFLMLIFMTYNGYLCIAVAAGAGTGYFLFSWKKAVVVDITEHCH
# UniProt Q0GE19: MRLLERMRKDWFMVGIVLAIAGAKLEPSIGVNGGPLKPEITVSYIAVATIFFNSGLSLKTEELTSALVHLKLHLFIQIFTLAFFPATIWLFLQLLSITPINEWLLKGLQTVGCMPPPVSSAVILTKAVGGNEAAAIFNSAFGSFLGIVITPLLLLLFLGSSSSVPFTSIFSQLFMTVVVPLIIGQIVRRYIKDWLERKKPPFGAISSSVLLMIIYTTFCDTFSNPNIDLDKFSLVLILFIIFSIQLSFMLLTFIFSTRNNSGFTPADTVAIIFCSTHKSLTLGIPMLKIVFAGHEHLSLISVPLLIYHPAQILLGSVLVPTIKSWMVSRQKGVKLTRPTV
# UniProt Q9NTN3, whole entry, looked up: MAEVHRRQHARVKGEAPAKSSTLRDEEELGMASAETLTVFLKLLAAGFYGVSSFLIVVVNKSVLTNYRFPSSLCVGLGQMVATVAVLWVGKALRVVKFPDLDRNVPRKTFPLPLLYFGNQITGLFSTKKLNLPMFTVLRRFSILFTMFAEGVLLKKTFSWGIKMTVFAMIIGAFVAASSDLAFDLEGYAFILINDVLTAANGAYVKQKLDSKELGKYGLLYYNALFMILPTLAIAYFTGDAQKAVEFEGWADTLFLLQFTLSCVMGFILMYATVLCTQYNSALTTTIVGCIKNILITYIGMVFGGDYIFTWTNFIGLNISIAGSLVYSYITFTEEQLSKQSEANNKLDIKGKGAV
# UniProt Q6YBV0: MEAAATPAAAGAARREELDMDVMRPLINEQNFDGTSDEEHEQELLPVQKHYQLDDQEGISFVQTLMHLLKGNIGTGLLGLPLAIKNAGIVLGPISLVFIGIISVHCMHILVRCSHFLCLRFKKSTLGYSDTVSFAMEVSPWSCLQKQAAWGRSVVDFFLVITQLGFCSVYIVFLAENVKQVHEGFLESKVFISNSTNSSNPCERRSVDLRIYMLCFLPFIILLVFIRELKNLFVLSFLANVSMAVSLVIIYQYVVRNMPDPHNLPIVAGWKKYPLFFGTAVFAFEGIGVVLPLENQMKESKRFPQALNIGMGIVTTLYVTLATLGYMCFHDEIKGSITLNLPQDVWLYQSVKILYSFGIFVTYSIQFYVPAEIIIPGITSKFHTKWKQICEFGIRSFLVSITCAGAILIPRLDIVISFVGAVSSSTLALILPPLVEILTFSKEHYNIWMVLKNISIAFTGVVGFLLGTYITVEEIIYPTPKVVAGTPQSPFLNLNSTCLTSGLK
# UniProt Q695T7: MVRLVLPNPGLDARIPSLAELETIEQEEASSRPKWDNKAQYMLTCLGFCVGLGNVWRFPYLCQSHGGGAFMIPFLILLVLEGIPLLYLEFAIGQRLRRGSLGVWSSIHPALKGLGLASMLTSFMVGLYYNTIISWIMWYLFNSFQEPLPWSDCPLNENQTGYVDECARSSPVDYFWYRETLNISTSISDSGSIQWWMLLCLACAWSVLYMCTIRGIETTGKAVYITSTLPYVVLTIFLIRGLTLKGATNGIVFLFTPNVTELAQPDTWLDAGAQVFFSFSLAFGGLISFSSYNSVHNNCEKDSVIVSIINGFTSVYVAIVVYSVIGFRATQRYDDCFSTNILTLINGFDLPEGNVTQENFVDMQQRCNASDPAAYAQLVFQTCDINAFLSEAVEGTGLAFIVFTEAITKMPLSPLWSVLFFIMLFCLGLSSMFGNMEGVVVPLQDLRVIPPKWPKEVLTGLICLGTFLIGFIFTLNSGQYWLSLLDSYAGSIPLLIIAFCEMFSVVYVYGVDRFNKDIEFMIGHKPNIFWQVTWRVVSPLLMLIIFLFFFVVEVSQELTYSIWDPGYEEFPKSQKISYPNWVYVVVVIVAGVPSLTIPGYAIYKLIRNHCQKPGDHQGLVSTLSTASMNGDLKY
# UniProt O76082: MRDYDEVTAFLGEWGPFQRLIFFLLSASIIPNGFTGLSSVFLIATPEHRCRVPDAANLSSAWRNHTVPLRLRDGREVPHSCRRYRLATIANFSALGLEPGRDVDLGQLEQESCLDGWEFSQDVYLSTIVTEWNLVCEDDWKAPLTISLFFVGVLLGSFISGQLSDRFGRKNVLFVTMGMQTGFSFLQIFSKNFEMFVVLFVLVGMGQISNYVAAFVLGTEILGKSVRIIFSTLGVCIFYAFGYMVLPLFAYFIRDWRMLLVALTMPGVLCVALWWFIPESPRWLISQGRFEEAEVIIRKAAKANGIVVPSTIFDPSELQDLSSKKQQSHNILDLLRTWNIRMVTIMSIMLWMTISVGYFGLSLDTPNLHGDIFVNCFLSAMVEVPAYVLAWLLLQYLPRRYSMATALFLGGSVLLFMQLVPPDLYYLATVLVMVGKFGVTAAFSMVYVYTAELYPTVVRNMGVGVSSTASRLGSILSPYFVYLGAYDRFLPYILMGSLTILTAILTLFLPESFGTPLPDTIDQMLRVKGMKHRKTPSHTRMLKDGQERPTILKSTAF
# The list shows a part of the results.
# Compound: NC(=O)Nc1cc(-c2cccc(F)c2)sc1C(=O)N[C@H]1CCCNC1
# Test: log2 fold change, soluble protein after heating vs DMSO (PISA); higher = thermal stabilisation; K562 cells, 10 uM, 30 min; active = over 0.2 and 3.5 SD of the protein, either way, in both replicates (recomputed)
# Outline: (§1)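 Aliquots of K562 cells (2×10^6 cells/mL) treated with 10 μM compound for 30 min were heated for 3 min over 48°C-58°C. After pooling and extraction in PBS with 0.5% NP-40 at 4°C, soluble protein from a 21,000xg, 90 min spin was quantified by TMTpro 16plex LC-MS/MS with channel sums equalised. Thermal stability is expressed against control samples, from duplicates, as a log2 fold change.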
row,Target,log2 fold change
1,SLC66A3 (UniProt Q8N755),inactive: -0.002
2,SLC25A28 (UniProt Q96A46),inactive: -0.047
3,SLC41A1 (UniProt Q8IVJ1),inactive: 0.214
4,SLC23A2 (UniProt Q9UGH3),inactive: -0.095
5,SLC35F5 (UniProt Q8WV83),inactive: 0.06
6,SLC48A1 (UniProt Q6P1K1),inactive: -0.229
7,SLC3A2 (UniProt F5H867),inactive: -0.125
8,SLC43A3 (UniProt Q8NBI5),inactive: 0.099

# Compound: NC(=O)c1cnc(N[C@@H]2CCCC[C@@H]2N)nc1Nc1cccc(-n2nccn2)c1
# Test: as above
# Outline: as §1
row,Target,log2 fold change
1,SLC15A4 (UniProt Q8N697),inactive: -0.054
2,SLC22A4 (UniProt Q9H015),inactive: 0.016
3,SLC4A3 isoform 3 (UniProt P48751),inactive: -0.331
4,SLC35G1 (UniProt Q2M3R5),inactive: 0.06
5,SLC3A2 (UniProt F5GZS6),inactive: 0.114
6,SLC25A35 (UniProt Q3KQZ1),inactive: 0.087
7,SLC1A3 (UniProt P43003),inactive: 0.237
8,SLC35C2 isoform 3 (UniProt Q9NQQ7),inactive: -0.136
9,SLC25A14 isoform 3 (UniProt O95258),inactive: -0.056
10,SLC35A5 (UniProt Q9BS91),inactive: 0.027
11,SLC46A1 (UniProt Q96NT5),inactive: -0.143
12,SLC35E1 (UniProt Q96K37),inactive: -0.034
13,SLC50A1 (UniProt Q9BRV3),inactive: 0.921
14,SLC31A1 (UniProt O15431),inactive: 0.005
15,SLC10A7 isoform 1 (UniProt Q0GE19),inactive: 0.031
16,SLC35C1 (UniProt Q96A29),inactive: 0.012
17,SLC35D1 (UniProt Q9NTN3),inactive: -0.139

# Compound: NC1(c2ccc(-c3nc4ccn5c(=O)[nH]nc5c4cc3-c3ccccc3)cc2)CCC1
# Test: as above
# Outline: as §1
row,Target,log2 fold change
1,SLC15A4 (UniProt Q8N697),inactive: -0.02
2,SLC10A3 (UniProt P09131),inactive: -0.227
3,SLC66A3 (UniProt Q8N755),inactive: 0.037
4,SLC4A3 isoform 3 (UniProt P48751),inactive: -0.146
5,SLC3A2 (UniProt F5GZS6),inactive: -0.008
6,SLC1A3 (UniProt P43003),inactive: 0.103
7,SLC66A1 (UniProt Q6ZP29),inactive: 0
8,SLC25A14 isoform 3 (UniProt O95258),inactive: 0.033
9,SLC41A1 (UniProt Q8IVJ1),inactive: -0.064
10,SLC27A6 (UniProt Q9Y2P4),inactive: 0.019
11,SLC52A2 (UniProt Q9HAB3),inactive: 0.049
12,SLC26A2 (UniProt P50443),inactive: 0.114
13,SLC35E1 (UniProt Q96K37),inactive: -0.057
14,SLC50A1 (UniProt Q9BRV3),inactive: -0.072
15,SLC22A23 (UniProt A1A5C7),inactive: 0.138
16,SLC31A1 (UniProt O15431),inactive: 0.02
17,SLC66A2 (UniProt Q8N2U9),inactive: 0.097
18,SLC10A7 isoform 1 (UniProt Q0GE19),inactive: 0.096
19,SLC36A4 (UniProt Q6YBV0),inactive: -0.022
20,SLC3A2 (UniProt F5H867),inactive: -0.057
21,SLC36A1 (UniProt Q7Z2H8),inactive: -0.033
22,SLC6A19 (UniProt Q695T7),inactive: -0.329

# Compound: NCC(=O)Nc1ccc(-n2nc(C(F)(F)F)cc2-c2ccc3c(ccc4ccccc43)c2)cc1
# Test: as above
# Outline: as §1
row,Target,log2 fold change
1,SLC15A4 (UniProt Q8N697),inactive: 0.011
2,SLC22A4 (UniProt Q9H015),inactive: 0.029
3,SLC39A9 (UniProt Q9NUM3),inactive: -0.036
4,SLC3A2 (UniProt F5GZS6),inactive: -0.056
5,SLC25A35 (UniProt Q3KQZ1),inactive: 0.081
6,SLC1A3 (UniProt P43003),inactive: -0.055
7,SLC25A14 isoform 3 (UniProt O95258),inactive: 0.037
8,SLC22A5 isoform 3 (UniProt O76082),inactive: 0.056
9,SLC27A6 (UniProt Q9Y2P4),inactive: -0.022
10,SLC46A1 (UniProt Q96NT5),inactive: 0.137
11,SLC26A2 (UniProt P50443),inactive: -0.007
12,SLC35E1 (UniProt Q96K37),inactive: -0.075
13,SLC31A1 (UniProt O15431),inactive: -0.028
14,SLC35C1 (UniProt Q96A29),inactive: 0.037
15,SLC35D1 (UniProt Q9NTN3),inactive: 0.027

# Compound: Nc1ccccc1NC(=O)c1ccc(CNC(=O)OCc2cccnc2)cc1 [entinostat]
# Test: as above
# Outline: as §1
row,Target,log2 fold change
1,SLC66A3 (UniProt Q8N755),inactive: -0.159
2,SLC25A28 (UniProt Q96A46),inactive: 0.105
3,SLC41A1 (UniProt Q8IVJ1),inactive: 0.109
4,SLC23A2 (UniProt Q9UGH3),inactive: -0.063
5,SLC35F5 (UniProt Q8WV83),inactive: -0.113
6,SLC48A1 (UniProt Q6P1K1),inactive: 0.073
7,SLC3A2 (UniProt F5H867),inactive: -0.084
8,SLC43A3 (UniProt Q8NBI5),inactive: -0.044
